Assay results published in US20030170246A1.
No constants are given. Whether binding was seen depends on the method and setting. For some of these results: Binding seen in cells or lysates may run through a third protein. Some results given as binding are weak or reduced against the parent protein; the word gives no strength.

Columns and labels:
[1] = molecular target: T1, Lipophilin B (human) (UniProt O95969); assay: co-purification and SDS-PAGE
T1 sequence: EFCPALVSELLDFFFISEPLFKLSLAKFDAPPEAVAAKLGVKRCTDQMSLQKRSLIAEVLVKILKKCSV

[2] = molecular target: T1, Lipophilin B (human); assay: SDS-PAGE, non-reducing vs 10 mM DTT
[3] = molecular target: T1, Lipophilin B (human); assay: SDS-PAGE with and without DTT, N-terminal sequencing of bands
[4] = molecular target: T1, Lipophilin B (human); assay: co-purification, non-reducing SDS-PAGE, N-terminal sequencing; broken by 10 mM dithiothreitol

binding [1]: binds | binding [2]: binds | binding [3]: binds | binding [4]: binds
B1: Mammaglobin (protein)
chain: SGCPLLENVISKTINPQVSKTEYKELLQEFIDDNATTNAIDELKECFLNQTDETLSNVEVFMQLIYDSSLCDLF
modifications: glycosylated (native protein from MDA-MB-415 cells)
